In paper PMC10781698 one finds binding data, which are given here for one molecule.

One assay has as its target T1, RASAL3-FLAG (UniProt Q8C2K5).
T1 sequence: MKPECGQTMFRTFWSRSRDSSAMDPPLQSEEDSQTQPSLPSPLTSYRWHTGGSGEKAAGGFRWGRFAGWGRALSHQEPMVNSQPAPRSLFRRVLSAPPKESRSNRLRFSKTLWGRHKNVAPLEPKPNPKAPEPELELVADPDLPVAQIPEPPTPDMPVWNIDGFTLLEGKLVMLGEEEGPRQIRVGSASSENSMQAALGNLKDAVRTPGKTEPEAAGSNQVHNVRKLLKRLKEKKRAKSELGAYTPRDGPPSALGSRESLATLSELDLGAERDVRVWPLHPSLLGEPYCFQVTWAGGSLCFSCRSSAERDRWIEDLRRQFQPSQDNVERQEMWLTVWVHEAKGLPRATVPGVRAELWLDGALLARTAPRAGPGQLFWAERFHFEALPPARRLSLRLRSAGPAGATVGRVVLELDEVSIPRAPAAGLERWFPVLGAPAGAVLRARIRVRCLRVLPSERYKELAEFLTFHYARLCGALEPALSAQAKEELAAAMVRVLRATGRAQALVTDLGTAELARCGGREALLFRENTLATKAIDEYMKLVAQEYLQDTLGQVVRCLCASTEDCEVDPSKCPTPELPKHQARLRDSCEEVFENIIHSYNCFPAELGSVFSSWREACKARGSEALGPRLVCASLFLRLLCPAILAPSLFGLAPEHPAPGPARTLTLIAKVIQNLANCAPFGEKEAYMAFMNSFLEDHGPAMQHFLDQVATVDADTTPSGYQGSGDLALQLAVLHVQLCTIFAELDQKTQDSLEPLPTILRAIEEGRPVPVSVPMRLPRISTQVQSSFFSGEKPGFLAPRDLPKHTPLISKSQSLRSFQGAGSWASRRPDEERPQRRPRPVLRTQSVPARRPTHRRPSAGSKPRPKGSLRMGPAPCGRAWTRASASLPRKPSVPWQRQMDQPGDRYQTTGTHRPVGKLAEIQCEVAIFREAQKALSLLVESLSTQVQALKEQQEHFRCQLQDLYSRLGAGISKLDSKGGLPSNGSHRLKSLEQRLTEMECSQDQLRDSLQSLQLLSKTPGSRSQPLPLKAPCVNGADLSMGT
Description: co-IP; HEK293T transiently co-transfected pairwise; RIPA lysis buffer (20 mM Tris-HCl pH 7.5, 200 mM NaCl, 1% NP-40); IP with anti-FLAG and blot with anti-HA, or IP with anti-CCDC88B anti-serum and blot with anti-FLAG.

The target in a further assay is T2, ARHGEF2-FLAG (UniProt Q60875).
T2 sequence: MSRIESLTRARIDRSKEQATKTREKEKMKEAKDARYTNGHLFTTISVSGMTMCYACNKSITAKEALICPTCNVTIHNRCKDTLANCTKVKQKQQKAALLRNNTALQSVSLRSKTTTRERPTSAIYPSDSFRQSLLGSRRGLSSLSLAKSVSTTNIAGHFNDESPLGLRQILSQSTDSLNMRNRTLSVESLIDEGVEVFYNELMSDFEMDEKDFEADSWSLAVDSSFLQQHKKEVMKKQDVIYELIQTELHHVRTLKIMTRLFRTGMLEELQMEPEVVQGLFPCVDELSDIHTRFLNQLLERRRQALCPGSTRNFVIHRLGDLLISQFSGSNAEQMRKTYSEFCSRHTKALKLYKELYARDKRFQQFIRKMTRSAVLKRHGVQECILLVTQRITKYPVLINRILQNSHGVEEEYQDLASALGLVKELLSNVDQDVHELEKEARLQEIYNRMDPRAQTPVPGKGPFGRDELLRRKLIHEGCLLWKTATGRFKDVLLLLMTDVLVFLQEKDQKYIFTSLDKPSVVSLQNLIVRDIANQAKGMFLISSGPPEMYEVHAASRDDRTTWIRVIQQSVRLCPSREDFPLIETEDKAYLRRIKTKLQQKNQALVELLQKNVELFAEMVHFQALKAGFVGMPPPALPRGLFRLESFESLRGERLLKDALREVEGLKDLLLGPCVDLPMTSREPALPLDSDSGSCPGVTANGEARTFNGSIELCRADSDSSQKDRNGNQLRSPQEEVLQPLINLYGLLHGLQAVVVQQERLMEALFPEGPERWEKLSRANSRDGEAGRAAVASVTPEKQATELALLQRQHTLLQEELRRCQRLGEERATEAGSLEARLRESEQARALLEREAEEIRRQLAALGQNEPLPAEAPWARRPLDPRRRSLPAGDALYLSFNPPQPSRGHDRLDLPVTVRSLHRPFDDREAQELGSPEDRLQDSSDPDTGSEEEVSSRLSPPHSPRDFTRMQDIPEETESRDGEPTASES
Described as above.

Results are given in words; binding and its absence hold for the method and conditions named. Binding seen in cells or lysates may run through a third protein. Some entries that bind do so weakly or less than the wild type. Where a sequence is shown, tags or fusion partners need not be part of it.

B1: HA-CCDC88B (protein, UniProt Q4QRL3 1-1481)
chain: MEGAKGPRLRGFLSGSLATWALGLAGLVGEAEESAGGTEEEEEEEEEEGALCTEKRFLRLIDGALLLRVLGIIAPSSRGGLRMVRGRDGPAACRMWNLCHLWGRLRDFYQEELQLLILSPPPDLQTMGCDPFSEEAVDELESILRLLLGASVQCEHRELFIRHIRGLSLDVQSELAGAIQEVTQPGAGVVLALAGPESGELVAEELEMQLRSLTGMMSRLARERDLGAQRLAELLLEREPAHLLLPEAPANASAEGVSHHLALQLTNAKAQLRRLRQEVEEKAEQLLDSQAEVQGLEAEIRRLRQETQALSAQAKRAELYREEAEALRERAGRLPRLQEELRRCREKLQAAEVFKGQLEEERVLSEALEASKVLLEEQLEVARERSARLHETQRENLLLRTRLGEAHADLDSLRHQLEQLVEENVELELELQRSLEPPPGSPGEASLPGAAPSLQDEVREAEAGRLRAVERENRELRGQLQMLQAQLGSQHPLLEEQRENSRQPPVPNRDPATPSALHHSPQSPACQIGGEGSESLDLPSPASYSDITRSPKCSQAPDSHPELESPLQMVSQDPQTSDQALQESDPTVETHQCLEKSGHRVPLQSPIVWDPPQGPEVRIEVQELLGETGSREAPQGELVHKAQVLKQESPKCRPRSAELTLREPLKDQKALDRELELSKQQKETGRHEQRPKGLESKLGPQKPQQTSEGVPDAWSREEPTPGETLVSAIPEEQALRDEVAQLRREVAGLEVKLQAQAQRLEARSAEALCLSEELAQARRTEAEAHQEAEAQAREQARLREAVDTASLELEAASREREALAEALAAAGRERRQWERDGPRLRAQVEAAEQQVQALESQVRCHLEEAEREHAEKQALREELEKAVLRGQELGDRLEHLQEELEQAALERQKFLQEQENQHQRYRHLEQRLEAELQAASTSKEEALMELKARALQLEEELIQLRQYPVDLATGARAGPRTVETQNGRLIEVERNNATLVAEKAALQGQLQHLEGQLGSLQGRAQELLLQSQRAQEHSSRLQAEKSMMEMQGQELHRKLGVLEEEVRAARRAQEETRGQQQALLRDHEALVQLQRRQETELEGLLVRHRDLKANMRALELAHRELQGRHEQLQAQRANVEAQEVALLAERERLMQDGHRQRGLEEELRRLQNEHERAQMLLAEVSRERGELQGERGELRSRLARLELERAQLEIQSQQLRESNQQLDLSACRLTTQCELLTQLRSAQEEENRQLLAEVQALSRENRELLERSLESRDHLHREQREYLDQLNALRREKQKLVEKIMDQYRVLEPGPLPRTKKGSWLADKVKRLIRPRREGALHGGPRLGADGAGSTESLGGPLETELPEGREADGTGSSSPAPMRRVQSSLCLGDETLAGGQRRRLSSRFPGGRSSASFSPGDTPRQRFRQRRPGPLGAPSTHSKGSGVEWDGSIKTLSEHEADDTREAFQEQKPEKQFLTPSLSQ
As to B1, the binding result with RASAL3-FLAG and in the assay with ARHGEF2-FLAG was “binds” each time.
